The values below come from PubChem BioAssay AID256 (DTP/NCI, 2004).

The list is a part of this screen's results and no random one: it is rich in T/C values a quarter to a half above the control, in often repeated tests (any T/C) and in doses without a T/C. Further doses and runs are listed elsewhere. T/C gives the treated animals as a percentage of the vehicle group. Some entries give survivors of the animals treated and no T/C: the source files T/C as zero there, which appears to mark a toxic dose or a test without result, not a measured value. Some doses without a T/C left all or most animals alive at the check, yet need not have been tolerated: the source hardly ever lists a survival T/C far under the control, and the zero likely stands for such cases as well. Survivors were counted at the toxicity check, usually on the fifth day, unless a day is given; later deaths do not show. Schedules are NCI's codes, read here as Q, the interval in days (D) or hours (H), X, the number of doses. Some entries were tested several times; the results are listed from low to high. Where survival is the endpoint, the PubChem record calls one and a half times the control and up active, and a quarter to a half above the control has no call in these data; cut-offs in other NCI protocols can differ. Some T/C values carry the count of animals alive at the toxicity check (mostly the fifth day); where none is given, no animal had died by that day. Signs of the kind (2×) give the number of equal values in this list.

The subject of the assay is CD2F1 mice, L1210 leukemia ip, survival T/C. The experiment in a line: NCI In Vivo Anticancer Drug Screen. Data for tumor model L1210 Leukemia (intraperitoneal) in CD2F1 (CDF1) mice. The settings on record: higher T/C = longer survival. The gist of the method: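 Ratio T/C, where T is the treated-group value and C the vehicle-dosed control value, from mice implanted with a transplantable tumor.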

Where [1] appears, read: T/C endpoint: mean survival time, dose: 200.0 mg/kg/injection, schedule: Q01DX005 (ip), vehicle: water.
[2] abbreviates: T/C endpoint: mean survival time, dose: 100.0 mg/kg/injection, schedule: Q04DX003 (ip), vehicle: saline with Tween-80.
[3] abbreviates: T/C endpoint: mean survival time, dose: 100.0 mg/kg/injection, schedule: Q01DX009 (ip), vehicle: saline with Tween-80.
[4] abbreviates: T/C endpoint: median survival time, dose: 400.0 mg/kg/injection, schedule: Q01DX005 (ip), vehicle: Klucel (hydroxypropylcellulose) (HPC).
Where [5] appears, read: T/C endpoint: median survival time, dose: 400.0 mg/kg/injection, schedule: Q01DX009 (ip), vehicle: Klucel (hydroxypropylcellulose) (HPC).
Where [6] appears, read: T/C endpoint: mean survival time, dose: 400.0 mg/kg/injection, schedule: Q04DX003 (ip), vehicle: saline with Tween-80.
Where [7] appears, read: T/C endpoint: mean survival time, dose: 200.0 mg/kg/injection, schedule: Q04DX003 (ip), vehicle: saline with Tween-80.

Regarding `NC(=O)c1csc(C2OC(COP(=O)(O)O)C(O)C2O)n1` (stereo not given), the T/C (T/C endpoint: mean survival time, dose: 50.0 mg/kg/injection, schedule: Q01DX005 (ip), vehicle: water) is 128 and 136 % of control; the T/C under setting [1] is 145 % of control.
Consider `Nc1nc([S-])c2[nH]cnc2n1.[Cl-].[Cl-].[H+].[Pd+2].[Pd+2].[Pd+2]`, for which the T/C (T/C endpoint: mean survival time, dose: 12.5 mg/kg/injection, schedule: Q04DX003 (ip), vehicle: saline with Tween-80) is 142 % of control; the T/C (T/C endpoint: mean survival time, dose: 12.5 mg/kg/injection, schedule: Q04DX003 (ip), vehicle: suspension in saline) was 149 % of control; the T/C (T/C endpoint: mean survival time, dose: 25.0 mg/kg/injection, schedule: Q04DX003 (ip), vehicle: saline with Tween-80) was 146 % of control; the T/C (T/C endpoint: mean survival time, dose: 25.0 mg/kg/injection, schedule: Q04DX003 (ip), vehicle: suspension in saline) is 140 and 149 % of control; the T/C (T/C endpoint: mean survival time, dose: 50.0 mg/kg/injection, schedule: Q04DX003 (ip), vehicle: saline with Tween-80) was 142 % of control; the T/C under setting [2] was 137 % of control. Also, the survivor count runs as follows: (T/C endpoint: mean survival time, dose: 200.0 mg/kg/injection, schedule: Q04DX003 (ip), vehicle: suspension in saline) 6 of 6; (T/C endpoint: mean survival time, dose: 400.0 mg/kg/injection, schedule: Q04DX003 (ip), vehicle: suspension in saline) 6 of 6.
Turning to `O=C(CCBr)NCNC(=O)CCBr`, the T/C under setting [3] is 129 % of control.
Consider `CN(C)C(=O)Nc1ccc(Cl)cc1`, for which the T/C by setting is: (T/C endpoint: median survival time, dose: 25.0 mg/kg/injection, schedule: Q01DX005 (ip), vehicle: Klucel (hydroxypropylcellulose) (HPC)) 97, 98, 100 (2×), 103 (2×), 107, 109 (2×), 110, 111 % of control; (T/C endpoint: median survival time, dose: 25.0 mg/kg/injection, schedule: Q01DX009 (ip), vehicle: Klucel (hydroxypropylcellulose) (HPC)) 94, 100 (3×), 101, 102 (2×), 104, 109, 110, 117 % of control; (T/C endpoint: median survival time, dose: 50.0 mg/kg/injection, schedule: Q01DX005 (ip), vehicle: Klucel (hydroxypropylcellulose) (HPC)) 96 (3×), 97 [5 of 6 alive], 98, 100, 101, 102, 103, 107, 107 % of control [5 of 6 alive]; (T/C endpoint: median survival time, dose: 50.0 mg/kg/injection, schedule: Q01DX009 (ip), vehicle: Klucel (hydroxypropylcellulose) (HPC)) 92 (2×), 98, 100 (2×), 102, 105 (2×), 106, 108, 121 % of control; (T/C endpoint: median survival time, dose: 100.0 mg/kg/injection, schedule: Q01DX005 (ip), vehicle: Klucel (hydroxypropylcellulose) (HPC)) 96 (2×), 97, 98 (2×), 100, 102, 104, 106, 107, 109 % of control [5 of 6 alive]; (T/C endpoint: median survival time, dose: 100.0 mg/kg/injection, schedule: Q01DX009 (ip), vehicle: Klucel (hydroxypropylcellulose) (HPC)) 94, 97, 98 (2×), 98 [5 of 6 alive], 100 (2×), 102, 107, 108, 109 % of control. In addition, the T/C (T/C endpoint: median survival time, dose: 200.0 mg/kg/injection, schedule: Q01DX005 (ip), vehicle: Klucel (hydroxypropylcellulose) (HPC)) was 93, 95, 97, 102 (3×), 105, 108, 109 (2×), 110 % of control; the T/C (T/C endpoint: median survival time, dose: 200.0 mg/kg/injection, schedule: Q01DX009 (ip), vehicle: Klucel (hydroxypropylcellulose) (HPC)) is 96, 97, 101 (2×), 104, 106, 108, 109 (2×), 114 % of control (2×); the T/C under setting [4] is 86 [4 of 6 alive], 106 (2×), 107, 108, 109, 110, 112, 116 % of control; the T/C under setting [5] was 102, 107 (2×), 109 [5 of 6 alive], 112, 113, 115, 119 [5 of 6 alive], 120 % of control. The survivor count is, setting by setting: under setting [4], 1 of 6 and 5 of 6; under setting [5], 1 of 6 and 2 of 6.
On to `[O-][n+]1ccccc1C[P+](c1ccccc1)(c1ccccc1)c1ccccc1`, for which the survivor count (T/C endpoint: mean survival time, dose: 200.0 mg/kg/injection, schedule: Q01DX009 (ip), vehicle: water) is 0 of 6.
On to `CCOC(=O)Nc1cc(N)c2[nH]cnc2n1`, for which the survivor count reads like this: (T/C endpoint: mean survival time, dose: 200.0 mg/kg/injection, schedule: Q01DX001 (ip), vehicle: carboxymethylcellulose (CMC)) 3 of 6; (T/C endpoint: mean survival time, dose: 400.0 mg/kg/injection, schedule: Q01DX001 (ip), vehicle: carboxymethylcellulose (CMC)) 0 of 6.
Turning to `CCCCCCCCCCCCCC1CCCC(C)N1` (stereo not given), the survivor count was 3 of 3 (T/C endpoint: mean survival time, dose: 200.0 mg/kg/injection, schedule: Q04DX002 (ip), vehicle: saline with Tween-80); 0 of 3 and 1 of 3 (T/C endpoint: mean survival time, dose: 400.0 mg/kg/injection, schedule: Q04DX002 (ip), vehicle: saline with Tween-80).
`N=C1CCCS1`: the survivor count reads like this: (T/C endpoint: median survival time, dose: 200.0 mg/kg/injection, schedule: Q01DX009 (ip), vehicle: saline) 0 of 6; (T/C endpoint: median survival time, dose: 400.0 mg/kg/injection, schedule: Q01DX009 (ip), vehicle: saline) 0 of 6.
Take `O=[N+]([O-])O.[Cd].c1ccncc1`: the survivor count by setting is: (T/C endpoint: mean survival time, dose: 75.0 mg/kg/injection, schedule: Q01DX001 (ip), vehicle: saline) 0 of 6; (T/C endpoint: mean survival time, dose: 150.0 mg/kg/injection, schedule: Q01DX001 (ip), vehicle: saline) 0 of 6; (T/C endpoint: mean survival time, dose: 300.0 mg/kg/injection, schedule: Q01DX001 (ip), vehicle: saline) 0 of 6.
For `NC(=O)c1cn(C2OC(CO)C(O)C2O)c2ncn3ncnc3c12` (stereo not given), where the note is “T/C endpoint: mean survival time, dose: 25.0 mg/kg/injection, schedule: Q01DX005 (ip), vehicle: water”, the T/C was 128 % of control. The survivor count reads like this: (T/C endpoint: mean survival time, dose: 100.0 mg/kg/injection, schedule: Q01DX005 (ip), vehicle: water) 0 of 6; under setting [1], 0 of 6; (T/C endpoint: mean survival time, dose: 400.0 mg/kg/injection, schedule: Q01DX005 (ip), vehicle: water) 0 of 6.
With `CCN(CC)C(=O)c1cc[n+](Cc2ccc(Cl)c(Cl)c2)cc1`, the survivor count runs as follows: (T/C endpoint: mean survival time, dose: 200.0 mg/kg/injection, schedule: Q01DX009 (ip), vehicle: saline with Tween-80) 0 of 6; under setting [6], 0 of 6.
As for `O=S1(=O)CC(Cl)C(Cl)C1` (stereo not given), the survivor count by setting is: (T/C endpoint: mean survival time, dose: 100.0 mg/kg/injection, schedule: Q04DX003 (ip), vehicle: alcohol) 0 of 6; (T/C endpoint: mean survival time, dose: 200.0 mg/kg/injection, schedule: Q04DX003 (ip), vehicle: alcohol) 0 of 6.
Take `CC(=O)N(C)N=Nc1ccc(C(C)C)cc1`: the survivor count runs as follows: (T/C endpoint: mean survival time, dose: 18.75 mg/kg/injection, schedule: Q04DX003 (ip), vehicle: Klucel (hydroxypropylcellulose) (HPC)) 0 of 6; (T/C endpoint: mean survival time, dose: 37.5 mg/kg/injection, schedule: Q04DX003 (ip), vehicle: Klucel (hydroxypropylcellulose) (HPC)) 0 of 6; (T/C endpoint: mean survival time, dose: 75.0 mg/kg/injection, schedule: Q04DX003 (ip), vehicle: Klucel (hydroxypropylcellulose) (HPC)) 0 of 6; (T/C endpoint: mean survival time, dose: 150.0 mg/kg/injection, schedule: Q04DX003 (ip), vehicle: Klucel (hydroxypropylcellulose) (HPC)) 0 of 6; (T/C endpoint: mean survival time, dose: 300.0 mg/kg/injection, schedule: Q04DX003 (ip), vehicle: Klucel (hydroxypropylcellulose) (HPC)) 0 of 6.
Turning to `O=c1c(O)c(-c2ccc(O)c(O)c2)oc2cc(O)cc(O)c12`, where the note is “T/C endpoint: mean survival time, dose: 1600.0 mg/kg/injection, schedule: Q01DX009 (ip), vehicle: saline with Tween-80”, the survivor count is given as 6 of 10.
On to `Cc1cccc(C)c1N=NN(C)C`, for which the T/C runs as follows: (T/C endpoint: mean survival time, dose: 50.0 mg/kg/injection, schedule: Q01DX009 (ip), vehicle: other) 125 % of control [2 of 2 alive]; (T/C endpoint: mean survival time, dose: 50.0 mg/kg/injection, schedule: Q01DX009 (ip), vehicle: saline with Tween-80) 134 % of control. Further, the survivor count (T/C endpoint: mean survival time, dose: 100.0 mg/kg/injection, schedule: Q01DX009 (ip), vehicle: other) is reported as 0 of 2; the survivor count under setting [3] was 2 of 6; the survivor count (T/C endpoint: mean survival time, dose: 200.0 mg/kg/injection, schedule: Q01DX009 (ip), vehicle: other) is 0 of 2; the survivor count (T/C endpoint: mean survival time, dose: 400.0 mg/kg/injection, schedule: Q01DX009 (ip), vehicle: other) is recorded as 0 of 2.
Regarding `CCN(CC)CC(O)CNc1ncnc(N)c1C(=C(C)C)c1ccc(Cl)cc1` (stereo not given), the survivor count under setting [7] is 4 of 6 and the survivor count under setting [6] is 0 of 6.
Take `O=C1CCC2(C=C(Br)C(=O)C(Br)=C2)O1`: the survivor count (T/C endpoint: mean survival time, dose: 10.0 mg/kg/injection, schedule: Q01DX009 (ip), vehicle: saline with Tween-80) is on record as 2 of 6; the survivor count (T/C endpoint: mean survival time, dose: 20.0 mg/kg/injection, schedule: Q01DX009 (ip), vehicle: saline with Tween-80) is listed as 2 of 6; the survivor count under setting [2] is listed as 0 of 6; the survivor count under setting [7] is listed as 0 of 6; the survivor count under setting [6] is listed as 0 of 6.
